Source: publication PMC4338318
No constants are given. Whether binding was seen depends on the method and setting. For some assays here: In cells and extracts the contact can be indirect. Some binding calls cover weakened binding; strength is not graded here. Tags and fused reporters may be left off the sequences shown.

T1: FLAG-seipin, short translation (398 amino acids) (human), Q96G97
T1 chain: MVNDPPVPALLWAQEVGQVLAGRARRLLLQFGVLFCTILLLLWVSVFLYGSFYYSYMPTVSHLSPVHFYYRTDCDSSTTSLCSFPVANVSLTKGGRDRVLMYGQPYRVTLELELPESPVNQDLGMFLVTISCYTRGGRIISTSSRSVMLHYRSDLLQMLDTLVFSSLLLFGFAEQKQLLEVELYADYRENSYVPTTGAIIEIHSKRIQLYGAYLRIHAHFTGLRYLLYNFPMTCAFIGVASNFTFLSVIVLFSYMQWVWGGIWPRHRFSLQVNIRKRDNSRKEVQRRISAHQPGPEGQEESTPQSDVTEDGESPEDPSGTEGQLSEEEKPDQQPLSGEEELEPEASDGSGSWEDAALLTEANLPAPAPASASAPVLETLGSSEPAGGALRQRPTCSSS


Tests used:
[1] = target: T1, FLAG-seipin, short translation (398 …); test: co-IP; HEK293 cells co-transfected; ODG lysis buffer (50 mM ODG, 50 mM Tris pH 6.8, 150 mM NaCl, 1 mM EDTA); anti-FLAG agarose 2 h at 4 °C; elution with 3xFLAG peptide; immunoblot; conditions: remark: other sources report otherwise
HA-lipin 1α = HA-lipin 1α (UniProt Q14693); test: atomic force microscopy (AFM); HA-lipin 1α isolated alone by anti-HA immunoaffinity from tsA 201 cells; tapping mode in air; particle volume against the volume expected from the mass; both purified

Row | binding [1] | binding (HA-lipin 1α) | Binder
1 | binds |  | AGPAT2-Myc (Myc-tagged human 1-acylglycerol-3-phosphate O-acyltransferase 2), O15120 24-278 (enzyme) AEFYAKVALYCALCFTVSAVASLVCLLRHGGRTVENMSIIGWFVRSFKYFYGLRFEVRDPRRLQEARPCVIVSNHQSILDMMGLMEVLPERCVQIAKRELLFLGPVGLIMYLGGVFFINRQRSSTAMTVMADLGERMVRENLKVWIYPEGTRNDNGDLLPFKKGAFYLAVQAQVPIVPVVYSSFSSFYNTKKKFFTSGTVTVQVLEAIPTSGLTAADVPALVDTCHRAMRTTFLHISKTPQENGATAGSGVQPAQ
2 |  | no binding | HA-lipin 1α (enzyme, UniProt Q14693 1-890) MNYVGQLAGQVFVTVKELYKGLNPATLSGCIDIIVIRQPNGNLQCSPFHVRFGKMGVLRSREKVVDIEINGESVDLHMKLGDNGEAFFVQETDNDQEVIPMHLATSPILSEGASRMECQLKRGSVDRMRGLDPSTPAQVIAPSETPSSSSVVKKRRKRRRKSQLDSLKRDDNMNTSEDEDMFPIEMSSDEAMELLESSRTLPNDIPPFQDDIPEENLSLAVIYPQSASYPNSDREWSPTPSPSGSRPSTPKSDSELVSKSTERTGQKNPEMLWLWGELPQAAKSSSPHKMKESSPLSSRKICDKSHFQAIHSESSDTFSDQSPTLVGGALLDQNKPQTEMQFVNEEDLETLGAAAPLLPMIEELKPPSASVVQTANKTDSPSRKRDKRSRHLGADGVYLDDLTDMDPEVAALYFPKNGDPSGLAKHASDNGARSANQSPQSVGSSGVDSGVESTSDGLRDLPSIAISLCGGLSDHREITKDAFLEQAVSYQQFVDNPAIIDDPNLVVKIGSKYYNWTTAAPLLLAMQAFQKPLPKATVESIMRDKMPKKGGRWWFSWRGRNTTIKEESKPEQCLAGKAHSTGEQPPQLSLATRVKHESSSSDEERAAAKPSNAGHLPLLPNVSYKKTLRLTSEQLKSLKLKNGPNDVVFSVTTQYQGTCRCEGTIYLWNWDDKVIISDIDGTITRSDTLGHILPTLGKDWTHQGIAKLYHKVSQNGYKFLYCSARAIGMADMTRGYLHWVNERGTVLPQGPLLLSPSSLFSALHREVIEKKPEKFKVQCLTDIKNLFFPNTEPFYAAFGNRPADVYSYKQVGVSLNRIFTVNPKGELVQEHAKTNISSYVRLCEVVDHVFPLLKRSHSSDFPCSDTFSNFTFWREPLPPFENQDIHSASA
